Reference: PMC3777911
These are yes or no findings as the source states them, for the method shown. Some results given as binding are weak or reduced against the parent protein; the word gives no strength. For part of these data: Where a sequence is shown, tags or fusion partners need not be part of it. Blank lines part the entries; values can stand above or below the substance they belong to.

The chains behind the UniProt entries cited, without tags or fusion partners. Where a name states a change or a piece, a line headed by the entry shows the natural chain unless it says otherwise. A line that says so, or that is headed by a name, gives the form on record, which may keep a tag or linker.
UniProt P55735: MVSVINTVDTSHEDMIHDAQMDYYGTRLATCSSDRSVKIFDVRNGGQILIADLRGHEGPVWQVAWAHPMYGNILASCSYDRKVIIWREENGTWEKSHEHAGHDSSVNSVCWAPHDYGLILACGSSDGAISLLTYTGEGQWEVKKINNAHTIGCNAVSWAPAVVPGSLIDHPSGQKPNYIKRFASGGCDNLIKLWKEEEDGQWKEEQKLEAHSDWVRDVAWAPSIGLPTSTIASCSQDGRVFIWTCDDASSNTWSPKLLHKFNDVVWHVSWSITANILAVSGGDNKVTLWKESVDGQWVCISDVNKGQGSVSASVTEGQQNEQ
UniProt P12815: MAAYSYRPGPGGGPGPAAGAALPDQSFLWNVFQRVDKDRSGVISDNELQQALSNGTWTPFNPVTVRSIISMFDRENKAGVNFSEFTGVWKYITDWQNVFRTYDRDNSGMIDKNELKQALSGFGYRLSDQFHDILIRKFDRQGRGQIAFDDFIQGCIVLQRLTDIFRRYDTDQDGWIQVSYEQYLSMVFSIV
ALG-2.1, splice variant of ALG-2 (P12815-2, form named): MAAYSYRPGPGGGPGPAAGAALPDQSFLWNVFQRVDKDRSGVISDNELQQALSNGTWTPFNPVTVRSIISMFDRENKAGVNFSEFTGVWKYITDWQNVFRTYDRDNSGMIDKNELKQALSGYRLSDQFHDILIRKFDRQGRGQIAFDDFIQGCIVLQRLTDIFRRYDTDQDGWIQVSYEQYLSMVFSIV
UniProt Q15436: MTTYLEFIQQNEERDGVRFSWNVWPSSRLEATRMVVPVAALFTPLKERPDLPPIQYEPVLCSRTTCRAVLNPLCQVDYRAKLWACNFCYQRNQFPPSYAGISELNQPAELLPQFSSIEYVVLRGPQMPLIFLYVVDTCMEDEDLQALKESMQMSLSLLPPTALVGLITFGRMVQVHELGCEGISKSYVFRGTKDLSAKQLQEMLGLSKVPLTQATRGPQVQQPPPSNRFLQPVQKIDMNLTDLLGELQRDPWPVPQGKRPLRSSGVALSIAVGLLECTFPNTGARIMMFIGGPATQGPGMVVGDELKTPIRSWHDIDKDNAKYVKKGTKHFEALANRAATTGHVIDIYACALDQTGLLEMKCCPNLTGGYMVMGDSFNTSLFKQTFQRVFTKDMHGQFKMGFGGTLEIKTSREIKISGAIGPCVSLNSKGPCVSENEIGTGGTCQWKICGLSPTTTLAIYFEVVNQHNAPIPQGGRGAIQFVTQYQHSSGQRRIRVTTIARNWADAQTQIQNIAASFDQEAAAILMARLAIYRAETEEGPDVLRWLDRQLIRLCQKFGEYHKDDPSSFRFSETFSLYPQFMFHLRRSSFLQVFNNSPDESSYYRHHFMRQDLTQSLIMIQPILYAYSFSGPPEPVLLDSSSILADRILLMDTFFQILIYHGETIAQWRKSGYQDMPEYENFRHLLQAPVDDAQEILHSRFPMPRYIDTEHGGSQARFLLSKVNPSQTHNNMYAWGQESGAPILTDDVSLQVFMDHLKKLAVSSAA

Experiments:
[1] = target: HA-Sec13/His-Sec31AdelABD complex (Sec31A lacking the ALG-2 binding domain, amino acids 827-852) (UniProt P55735); test: pull-down; His-tagged Sec31A (Sec13/Sec31A) immobilised on Nickel beads, recombinant ALG-2 versions added, in the presence of Ca2+; eluates on SDS-PAGE, SyproRed; ratios from fluorescence intensity; both purified
[2] = target: HA-Sec13/His-Sec31A complex (outer COPII coat), wild type (UniProt P55735); test: as above
His-Sec24D = target: T1, His-Sec24D (UniProt O94855); test: co-purification (Ni-NTA affinity chromatography); the two chains co-expressed in ES-SF9 cells; complex purified on Ni-NTA through the His tag of Sec31A or Sec24; purified Sec13/Sec31A collected again on Ni beads, SyproRed
T1 sequence: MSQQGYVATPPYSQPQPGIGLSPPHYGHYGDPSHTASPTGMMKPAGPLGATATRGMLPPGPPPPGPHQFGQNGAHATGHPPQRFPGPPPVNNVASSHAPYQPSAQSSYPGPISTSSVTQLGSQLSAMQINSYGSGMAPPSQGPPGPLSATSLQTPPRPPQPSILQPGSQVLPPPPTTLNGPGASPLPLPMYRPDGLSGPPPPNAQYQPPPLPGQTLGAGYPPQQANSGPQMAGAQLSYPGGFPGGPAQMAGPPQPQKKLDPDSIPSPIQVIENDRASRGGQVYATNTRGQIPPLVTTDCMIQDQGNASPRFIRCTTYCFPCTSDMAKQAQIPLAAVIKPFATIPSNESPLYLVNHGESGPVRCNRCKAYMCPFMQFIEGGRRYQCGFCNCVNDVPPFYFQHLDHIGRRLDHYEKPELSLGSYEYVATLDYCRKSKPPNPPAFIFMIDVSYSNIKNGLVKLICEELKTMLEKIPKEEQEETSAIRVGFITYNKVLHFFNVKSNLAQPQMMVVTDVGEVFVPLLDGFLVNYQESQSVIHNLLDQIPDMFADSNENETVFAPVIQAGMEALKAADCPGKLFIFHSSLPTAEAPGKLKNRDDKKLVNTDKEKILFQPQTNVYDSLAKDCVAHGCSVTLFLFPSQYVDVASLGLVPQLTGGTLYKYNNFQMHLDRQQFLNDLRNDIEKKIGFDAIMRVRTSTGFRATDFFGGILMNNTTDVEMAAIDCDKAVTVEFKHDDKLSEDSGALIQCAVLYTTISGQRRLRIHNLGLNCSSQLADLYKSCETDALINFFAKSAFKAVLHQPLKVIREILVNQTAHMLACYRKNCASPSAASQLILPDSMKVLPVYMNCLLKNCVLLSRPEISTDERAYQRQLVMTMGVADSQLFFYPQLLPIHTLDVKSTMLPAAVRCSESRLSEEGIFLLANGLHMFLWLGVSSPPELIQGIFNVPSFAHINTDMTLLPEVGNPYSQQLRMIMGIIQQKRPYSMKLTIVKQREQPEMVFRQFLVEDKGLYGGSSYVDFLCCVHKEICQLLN

binding [1]: no binding
Substance: ALG-2 (product of the apoptosis linked gene-2), recombinant wild type (from UniProt P12815 1-191)

binding [2]: binds
Substance: ALG-2.1, splice variant of ALG-2 (from UniProt P12815-2 1-189)

binding (His-Sec24D): binds
Substance: Flag-Sec23A (from UniProt Q15436 1-765)
